For one molecule, activity change, negative = inhibition results are on record in PubChem BioAssay AID1117272 (Broad Institute, 2014).

The list shows a part of the results. Potency and affinity values are given separately. The source made no clear call on entries shown without one.

This experiment can be described thus: PubChem AID 1117272. The following applies: orthopoxvirus-infected cells, late gene fluorescent reporter; at 10 µM (top of the series).

`COc1ccccc1-c1ccc(CN(C)C[C@@H]2Oc3cc(C#C[C@@H](C)O)ccc3S(=O)(=O)N([C@@H](C)CO)C[C@@H]2C)cc1` had an activity change, negative = inhibition of 40.5%.
